# For at least one compound, name, drawing or mass did not settle the structure.
# Experiments:
# E. faecium = assay: Susceptibility testing (MIC, modified NCCLS method); assay type: cell-based, Enterococcus faecium; details: E. faecium (6)
# Method: The NCCLS (National Committee for Clinical Laboratory Standards) method to determine MIC's of antimicrobial compounds was modified for high-throughput screening. All stocks of tested compounds were prepared in either water or in dimethylsulfoxide (DMSO), depending on the solubility. […] Briefly 20 2-fold serial dilutions of testing compounds from the highest concentration were made in a 384-well microtiter plate. Each well was inoculated with testing bacteria in broth to a final concentration of approximately 1-1.5×10^6 cells/ml. Bacterial growth was determined by the increase of optical density at 600 nm using a microplate reader (Tecan SpectraFluor Plus).
# E. coli N = assay: Detection of triclosan released from Compound (9) in bacteria; assay type: cell-based, Escherichia coli; details: up to 15 minutes post-treatment
smiles,measurement,setting,value
"O=C(Cc1cccs1)N[C@@H]1C(=O)N2C(C(=O)O)=C(COc3cc(Cl)ccc3Oc3ccc(Cl)cc3Cl)CS[C@H]12 [Compound 9, 3-(2-(2,4-Dichlorophenoxy)-5-chlorophenoxy)methyl-7-(2-thienylacetamido)-3-cephem-4-carboxylic acid]",MIC range,E. faecium,2->16
same,triclosan formation,E. coli N,below the limit of detection
